Data published in patent US6794147 (Pfizer, dated 2004).
No constants are given. Whether binding was seen depends on the method and setting. For some of these results: Binding seen in cells or lysates may run through a third protein. Some results given as binding are weak or reduced against the parent protein; the word gives no strength. For some of these results: Sequences can lack the tags named with a protein.

Chains of the proteins cited; added tags and fusions are not shown. Lines headed by an entry give the natural chain unless they say otherwise; changes in a name come on top.
UniProt P04386: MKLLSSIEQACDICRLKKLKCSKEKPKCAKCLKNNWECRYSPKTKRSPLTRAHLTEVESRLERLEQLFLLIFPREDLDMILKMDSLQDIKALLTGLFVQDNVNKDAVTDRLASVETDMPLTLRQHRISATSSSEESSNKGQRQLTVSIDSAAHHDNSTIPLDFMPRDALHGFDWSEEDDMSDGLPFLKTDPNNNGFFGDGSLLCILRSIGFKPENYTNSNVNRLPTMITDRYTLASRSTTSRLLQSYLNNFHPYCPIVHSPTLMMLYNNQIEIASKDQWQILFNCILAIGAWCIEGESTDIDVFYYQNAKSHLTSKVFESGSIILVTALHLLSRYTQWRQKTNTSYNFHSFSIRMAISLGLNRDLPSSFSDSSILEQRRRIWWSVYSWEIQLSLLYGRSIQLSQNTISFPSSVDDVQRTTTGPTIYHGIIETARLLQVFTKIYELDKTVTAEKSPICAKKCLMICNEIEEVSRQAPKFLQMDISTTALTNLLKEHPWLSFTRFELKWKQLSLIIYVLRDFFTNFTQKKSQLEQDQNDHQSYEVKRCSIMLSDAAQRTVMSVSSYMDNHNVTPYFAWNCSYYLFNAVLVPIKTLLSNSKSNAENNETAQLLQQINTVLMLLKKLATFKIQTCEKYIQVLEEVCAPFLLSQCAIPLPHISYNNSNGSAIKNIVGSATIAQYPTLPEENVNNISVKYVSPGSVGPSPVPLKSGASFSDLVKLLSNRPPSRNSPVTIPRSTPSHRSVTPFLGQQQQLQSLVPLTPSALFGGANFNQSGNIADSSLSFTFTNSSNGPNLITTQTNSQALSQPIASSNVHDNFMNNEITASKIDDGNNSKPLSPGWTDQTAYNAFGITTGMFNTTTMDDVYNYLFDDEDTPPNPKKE

Experiments:
[1] = target: T1, human MSH5 in the GAL4 activation domain vector (AD) (human) (UniProt O43196); experiment: yeast two-hybrid assay
T1 sequence (looked up): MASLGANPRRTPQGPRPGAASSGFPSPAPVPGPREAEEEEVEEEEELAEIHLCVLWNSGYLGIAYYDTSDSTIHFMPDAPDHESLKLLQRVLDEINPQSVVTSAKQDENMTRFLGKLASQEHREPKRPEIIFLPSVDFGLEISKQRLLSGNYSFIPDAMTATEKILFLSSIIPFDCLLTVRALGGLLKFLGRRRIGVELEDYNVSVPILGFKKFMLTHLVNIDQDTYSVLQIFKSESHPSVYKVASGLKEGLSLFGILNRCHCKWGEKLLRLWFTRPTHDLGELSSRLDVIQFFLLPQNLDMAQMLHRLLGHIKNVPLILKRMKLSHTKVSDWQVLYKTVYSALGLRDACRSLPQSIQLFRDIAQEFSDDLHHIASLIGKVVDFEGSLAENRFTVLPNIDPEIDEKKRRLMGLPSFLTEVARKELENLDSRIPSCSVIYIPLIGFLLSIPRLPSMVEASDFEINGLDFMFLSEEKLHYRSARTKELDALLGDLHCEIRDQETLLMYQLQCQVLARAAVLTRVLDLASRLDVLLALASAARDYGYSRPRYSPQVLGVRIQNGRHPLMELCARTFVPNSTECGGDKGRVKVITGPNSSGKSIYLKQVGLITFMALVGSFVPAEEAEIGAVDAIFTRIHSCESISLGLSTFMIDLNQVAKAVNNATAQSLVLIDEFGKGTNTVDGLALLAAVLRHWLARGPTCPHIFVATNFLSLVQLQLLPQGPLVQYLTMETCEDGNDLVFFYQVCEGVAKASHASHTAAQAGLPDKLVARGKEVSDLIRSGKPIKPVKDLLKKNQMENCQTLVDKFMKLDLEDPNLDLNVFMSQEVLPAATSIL

[2] = target: T1, human MSH5 in the GAL4 activation domain vector (AD) (human); experiment: yeast two-hybrid assay, GAL4UAS-β-galactosidase reporter
[3] = target: T2, mouse MSH5 (endogenous, mouse testicular lysates) (mouse) (UniProt Q9QUM7); experiment: co-immunoprecipitation from mouse testicular lysates (IP anti-MSH4, blot anti-MSH5)
T2 sequence (looked up): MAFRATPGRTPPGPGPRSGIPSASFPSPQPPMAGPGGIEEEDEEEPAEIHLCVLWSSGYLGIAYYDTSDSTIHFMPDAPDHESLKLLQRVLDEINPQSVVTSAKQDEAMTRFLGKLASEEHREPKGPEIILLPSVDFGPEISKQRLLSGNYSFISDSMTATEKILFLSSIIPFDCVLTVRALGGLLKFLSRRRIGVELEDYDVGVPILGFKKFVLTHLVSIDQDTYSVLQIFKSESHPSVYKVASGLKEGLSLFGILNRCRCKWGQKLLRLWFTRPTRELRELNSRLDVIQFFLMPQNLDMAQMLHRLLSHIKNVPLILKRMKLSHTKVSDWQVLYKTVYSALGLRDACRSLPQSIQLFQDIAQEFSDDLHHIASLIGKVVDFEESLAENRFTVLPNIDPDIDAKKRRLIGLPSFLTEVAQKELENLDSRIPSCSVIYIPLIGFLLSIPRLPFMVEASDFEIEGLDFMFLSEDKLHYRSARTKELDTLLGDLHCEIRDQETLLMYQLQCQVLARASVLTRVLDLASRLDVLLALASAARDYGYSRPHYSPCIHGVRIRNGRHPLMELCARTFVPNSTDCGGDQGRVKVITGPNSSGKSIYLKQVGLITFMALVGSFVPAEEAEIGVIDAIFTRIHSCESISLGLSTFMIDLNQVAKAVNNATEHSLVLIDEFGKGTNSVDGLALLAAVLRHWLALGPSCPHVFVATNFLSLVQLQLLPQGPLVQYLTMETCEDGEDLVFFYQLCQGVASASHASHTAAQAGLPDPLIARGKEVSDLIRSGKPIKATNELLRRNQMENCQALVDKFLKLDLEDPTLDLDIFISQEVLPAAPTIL

[4] = target: T3, mouse MSH4 (endogenous, mouse testicular lysates) (mouse) (UniProt Q99MT2); experiment: reciprocal co-immunoprecipitation from mouse testicular lysates
T3 sequence (looked up): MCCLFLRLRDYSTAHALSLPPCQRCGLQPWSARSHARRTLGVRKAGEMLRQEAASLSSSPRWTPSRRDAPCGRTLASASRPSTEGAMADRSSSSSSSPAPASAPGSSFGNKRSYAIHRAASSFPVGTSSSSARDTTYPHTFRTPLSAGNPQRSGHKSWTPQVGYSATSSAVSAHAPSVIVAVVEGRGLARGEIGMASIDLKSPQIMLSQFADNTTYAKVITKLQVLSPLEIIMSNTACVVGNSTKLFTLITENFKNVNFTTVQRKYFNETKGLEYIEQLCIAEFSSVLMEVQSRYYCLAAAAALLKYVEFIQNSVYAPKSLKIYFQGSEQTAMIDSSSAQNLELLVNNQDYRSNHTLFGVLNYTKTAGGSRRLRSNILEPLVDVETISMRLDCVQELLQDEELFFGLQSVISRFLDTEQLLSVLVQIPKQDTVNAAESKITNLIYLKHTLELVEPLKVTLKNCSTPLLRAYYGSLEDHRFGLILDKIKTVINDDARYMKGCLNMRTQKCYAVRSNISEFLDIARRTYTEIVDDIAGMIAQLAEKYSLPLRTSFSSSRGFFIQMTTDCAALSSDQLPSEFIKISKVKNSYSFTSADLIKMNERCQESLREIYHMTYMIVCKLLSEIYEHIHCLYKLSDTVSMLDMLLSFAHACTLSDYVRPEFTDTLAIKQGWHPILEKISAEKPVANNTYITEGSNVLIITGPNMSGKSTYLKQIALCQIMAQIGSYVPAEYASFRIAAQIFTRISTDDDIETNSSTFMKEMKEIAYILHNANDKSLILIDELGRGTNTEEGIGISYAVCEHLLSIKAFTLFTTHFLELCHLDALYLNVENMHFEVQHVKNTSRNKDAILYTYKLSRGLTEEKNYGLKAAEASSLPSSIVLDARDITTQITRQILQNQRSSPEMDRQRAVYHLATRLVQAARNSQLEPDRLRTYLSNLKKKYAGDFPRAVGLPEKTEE

human MSH4 in the GAL4 DNA-binding domain vector (DBD) (from UniProt P04386 1-147; O15457 1-936)
binding [1]: binds
binding [2]: binds

B1: mouse MSH4 (endogenous, mouse testicular lysates) (protein, UniProt Q99MT2 1-958, looked up)
chain: MCCLFLRLRDYSTAHALSLPPCQRCGLQPWSARSHARRTLGVRKAGEMLRQEAASLSSSPRWTPSRRDAPCGRTLASASRPSTEGAMADRSSSSSSSPAPASAPGSSFGNKRSYAIHRAASSFPVGTSSSSARDTTYPHTFRTPLSAGNPQRSGHKSWTPQVGYSATSSAVSAHAPSVIVAVVEGRGLARGEIGMASIDLKSPQIMLSQFADNTTYAKVITKLQVLSPLEIIMSNTACVVGNSTKLFTLITENFKNVNFTTVQRKYFNETKGLEYIEQLCIAEFSSVLMEVQSRYYCLAAAAALLKYVEFIQNSVYAPKSLKIYFQGSEQTAMIDSSSAQNLELLVNNQDYRSNHTLFGVLNYTKTAGGSRRLRSNILEPLVDVETISMRLDCVQELLQDEELFFGLQSVISRFLDTEQLLSVLVQIPKQDTVNAAESKITNLIYLKHTLELVEPLKVTLKNCSTPLLRAYYGSLEDHRFGLILDKIKTVINDDARYMKGCLNMRTQKCYAVRSNISEFLDIARRTYTEIVDDIAGMIAQLAEKYSLPLRTSFSSSRGFFIQMTTDCAALSSDQLPSEFIKISKVKNSYSFTSADLIKMNERCQESLREIYHMTYMIVCKLLSEIYEHIHCLYKLSDTVSMLDMLLSFAHACTLSDYVRPEFTDTLAIKQGWHPILEKISAEKPVANNTYITEGSNVLIITGPNMSGKSTYLKQIALCQIMAQIGSYVPAEYASFRIAAQIFTRISTDDDIETNSSTFMKEMKEIAYILHNANDKSLILIDELGRGTNTEEGIGISYAVCEHLLSIKAFTLFTTHFLELCHLDALYLNVENMHFEVQHVKNTSRNKDAILYTYKLSRGLTEEKNYGLKAAEASSLPSSIVLDARDITTQITRQILQNQRSSPEMDRQRAVYHLATRLVQAARNSQLEPDRLRTYLSNLKKKYAGDFPRAVGLPEKTEE
binding [3]: binds

B2: mouse MSH5 (endogenous, mouse testicular lysates) (protein, UniProt Q9QUM7 1-833, looked up)
chain: MAFRATPGRTPPGPGPRSGIPSASFPSPQPPMAGPGGIEEEDEEEPAEIHLCVLWSSGYLGIAYYDTSDSTIHFMPDAPDHESLKLLQRVLDEINPQSVVTSAKQDEAMTRFLGKLASEEHREPKGPEIILLPSVDFGPEISKQRLLSGNYSFISDSMTATEKILFLSSIIPFDCVLTVRALGGLLKFLSRRRIGVELEDYDVGVPILGFKKFVLTHLVSIDQDTYSVLQIFKSESHPSVYKVASGLKEGLSLFGILNRCRCKWGQKLLRLWFTRPTRELRELNSRLDVIQFFLMPQNLDMAQMLHRLLSHIKNVPLILKRMKLSHTKVSDWQVLYKTVYSALGLRDACRSLPQSIQLFQDIAQEFSDDLHHIASLIGKVVDFEESLAENRFTVLPNIDPDIDAKKRRLIGLPSFLTEVAQKELENLDSRIPSCSVIYIPLIGFLLSIPRLPFMVEASDFEIEGLDFMFLSEDKLHYRSARTKELDTLLGDLHCEIRDQETLLMYQLQCQVLARASVLTRVLDLASRLDVLLALASAARDYGYSRPHYSPCIHGVRIRNGRHPLMELCARTFVPNSTDCGGDQGRVKVITGPNSSGKSIYLKQVGLITFMALVGSFVPAEEAEIGVIDAIFTRIHSCESISLGLSTFMIDLNQVAKAVNNATEHSLVLIDEFGKGTNSVDGLALLAAVLRHWLALGPSCPHVFVATNFLSLVQLQLLPQGPLVQYLTMETCEDGEDLVFFYQLCQGVASASHASHTAAQAGLPDPLIARGKEVSDLIRSGKPIKATNELLRRNQMENCQALVDKFLKLDLEDPTLDLDIFISQEVLPAAPTIL
binding [4]: binds
